Assay results taken from PubChem BioAssay AID290 (DTP/NCI, 2004).
The list does not hold the whole screen: it gathers some chemical classes. Not every dose and run of a compound is shown. T/C is the treated group as % of the vehicle group. Schedules are NCI's codes, read here as Q, the interval in days (D) or hours (H), X, the number of doses. Some T/C values carry the count of animals alive at the toxicity check; where neither a count nor a note follows, no animal had died by that day. Some entries give survivors of the animals treated and no T/C: the source files T/C as zero there, which appears to mark a toxic dose or a test without result, not a measured value. Counts of survivors are from the toxicity check, whose day is not always given; animals may have died later.

Tested on: mice, P1798 lymphosarcoma sc, survival or tumor weight T/C
Assay: NCI In Vivo Anticancer Drug Screen. Data for tumor model P1798 Lymphosarcoma (subcutaneous) in unknown mice
Conditions: T/C endpoint: mean tumor weight, schedule: Q01DX010 (ip), higher T/C = larger tumour
Method: The antitumor activity of compounds was measured in mice bearing transplantable tumors. Survival or tumor size were measured and the results are expressed as the measurement made in the treated group (T) divided by the measurement made in the vehicle treated control group (C). The tumor model used in this assay is P1798 Lymphosarcoma (subcutaneous) in unknown mice

Structure (SMILES): OC(CNCCCl)C(O)C(O)C(O)CNCCCl (configuration not stated)
- T/C (dose: 3.1 mg/kg/injection, vehicle: saline, evaluated on day 14): 58 % of control
- T/C (dose: 6.3 mg/kg/injection, vehicle: saline, evaluated on day 14): 57 % of control
- T/C (dose: 12.5 mg/kg/injection, vehicle: saline, evaluated on day 14): 62 % of control
- T/C (dose: 25.0 mg/kg/injection, vehicle: saline, evaluated on day 14): 28 % of control [9 of 10 alive]

Structure (SMILES): CN(N=O)C(=N)N[N+](=O)[O-]
- T/C (dose: 9.4 mg/kg/injection, vehicle: none, evaluated on day 14): 97 % of control [9 of 10 alive]
- T/C (dose: 18.75 mg/kg/injection, vehicle: none, evaluated on day 14): 60 % of control [8 of 10 alive]
- survivor count (dose: 37.5 mg/kg/injection, vehicle: none): 0 of 10
- survivor count (dose: 75.0 mg/kg/injection, vehicle: none): 0 of 10

Structure (SMILES): Cc1[nH]c(=O)[nH]c(=O)c1N(CCCl)CCCl
- T/C (dose: 0.5 mg/kg/injection, vehicle: saline, evaluated on day 12): 81 % of control
- T/C (dose: 1.0 mg/kg/injection, vehicle: saline, evaluated on day 12): 107 % of control
- T/C (dose: 2.0 mg/kg/injection, vehicle: saline, evaluated on day 12): 91 % of control
- T/C (dose: 4.0 mg/kg/injection, vehicle: saline, evaluated on day 12): 6 % of control
